According to patent publication US20250296992A1 (Genmab, published 2025):
No constants are given. Whether binding was seen depends on the method and setting. Some results given as binding are weak or reduced against the parent protein; the word gives no strength.

Chains of the proteins cited; added tags and fusions are not shown. Residues count along the entry.
UniProt Q9H5Y7, residues 27-841: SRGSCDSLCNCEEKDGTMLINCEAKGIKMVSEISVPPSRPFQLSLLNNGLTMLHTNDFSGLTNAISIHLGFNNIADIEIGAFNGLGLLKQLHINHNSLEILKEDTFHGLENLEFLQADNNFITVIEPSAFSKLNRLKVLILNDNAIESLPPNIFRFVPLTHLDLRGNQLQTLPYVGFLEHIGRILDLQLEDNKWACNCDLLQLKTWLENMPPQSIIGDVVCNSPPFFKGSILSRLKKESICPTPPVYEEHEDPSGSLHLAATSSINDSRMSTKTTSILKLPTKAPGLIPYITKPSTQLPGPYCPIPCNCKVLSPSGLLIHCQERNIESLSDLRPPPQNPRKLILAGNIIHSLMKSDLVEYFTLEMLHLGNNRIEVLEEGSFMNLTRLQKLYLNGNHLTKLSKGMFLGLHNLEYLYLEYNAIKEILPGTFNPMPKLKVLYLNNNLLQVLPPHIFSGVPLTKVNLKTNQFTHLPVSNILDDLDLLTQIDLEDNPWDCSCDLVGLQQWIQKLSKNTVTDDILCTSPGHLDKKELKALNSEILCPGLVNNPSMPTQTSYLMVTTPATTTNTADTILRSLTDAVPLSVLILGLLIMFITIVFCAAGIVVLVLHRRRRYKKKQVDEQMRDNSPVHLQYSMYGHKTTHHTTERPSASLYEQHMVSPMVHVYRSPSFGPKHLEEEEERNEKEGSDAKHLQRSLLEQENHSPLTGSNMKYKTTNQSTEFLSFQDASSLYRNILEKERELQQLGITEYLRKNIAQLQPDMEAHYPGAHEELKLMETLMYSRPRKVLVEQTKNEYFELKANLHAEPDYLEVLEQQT

Assays:
[1] = target: T1, human SLITRK6 on cells (human, UniProt Q9H5Y7 27-841); test: flow cytometry on RT112/84 cells, PE-conjugated anti-human Fc
[2] = target: T1, human SLITRK6 on cells; test: flow cytometry on RT4, SW780, RT112/84, CHP-212, KYSE-30, KYSE-410 and 293F-huSLITRK6 cells
[3] = target: T1, human SLITRK6 on cells; test: flow cytometry on 293F-huSLITRK6 cells, PE-conjugated anti-human Fc
[4] = target: T1, human SLITRK6 on cells; test: flow cytometry on KYSE-30 cells, PE-conjugated anti-human Fc
[5] = target: T1, human SLITRK6 on cells; test: flow cytometry on RT4 cells, PE-conjugated anti-human Fc
[6] = target: T1, human SLITRK6 on cells; test: flow cytometry on SW780 and RT4 cells
[7] = target: T1, human SLITRK6 on cells; test: flow cytometry on SCC-4 cells, PE-conjugated anti-human Fc
[8] = target: T1, human SLITRK6 on cells; test: flow cytometry on CHP-212 cells, PE-conjugated anti-human Fc
[9] = target: T1, human SLITRK6 on cells; test: flow cytometry on CHP-212 cells (printed CHP212), PE-conjugated anti-human Fc
[10] = target: T1, human SLITRK6 on cells; test: flow cytometry on SW780 cells, PE-conjugated anti-human Fc
[11] = target: T1, human SLITRK6 on cells; test: flow cytometry on KYSE-410 cells, PE-conjugated anti-human Fc
[12] = target: T1, human SLITRK6 on cells; test: flow cytometry on 293F-huSLITRK6-C9 cells, PE-conjugated anti-human Fc

Measured: binding

B1: Sirtratumab (antibody, V domains shown)
VH: QVQLVESGGGVVQPGRSLRLSCAASGFTFSSYGMHWVRQAPGKGLEWVAVIWYDGSNQYYADSVKGRFTISRDNSKNTLFLQMHSLRAEDTAVYYCARGLTSGRYGMDWGQGTTVTVSS
VL: DIVMTQSPLSLPVTPGEPASISCRSSQSLLLSHGFNYLDWYLQKPGQSPQLLIYLGSSRASGVPDRFSGSGSGTDFTLKISRVEAEDVGLYYCMQPLQIPWTFGQGTKVEIK
notes: Prior-art benchmark antibody; also called Sirtratuzumab
binds: [1] | [2] | [3] | [4] | [5] | [6] | [7] | [8] | [9] | [10] | [11] | [12]

B2: AGS15E (antibody, V domains shown)
VH: QVQLVESGGGVVQPGRSLRLSCAASGFTFSSYGMHWVRQAPGKGLEWVAVIWYDGSNQYYADSVKGRFTISRDNSKNTLFLQMHSLRAEDTAVYYCARGLTSGRYGMDWGQGTTVTVSS
VL: DIVMTQSPLSLPVTPGEPASISCRSSQSLLLSHGFNYLDWYLQKPGQSPQLLIYLGSSRASGVPDRFSGSGSGTDFTLKISRVEAEDVGLYYCMQPLQIPWTFGQGTKVEIK
modifications: drug conjugate; drug-linker and positions not given
notes: also called ADC of Sirtratumab
binds: [1] | [2] | [3] | [4] | [5] | [6] | [8] | [10] | [11]
